Laboratory results from article PMC5989213.
Read-outs that look alike come from different tables or passages of the source. These are yes or no findings as the source states them, for the method shown. In cells and extracts the contact can be indirect. Some binding calls cover weakened binding; strength is not graded here.

The chains behind the UniProt entries cited, without tags or fusion partners. Where a name states a change or a piece, a line headed by the entry shows the natural chain unless it says otherwise. A line that says so, or that is headed by a name, gives the form on record, which may keep a tag or linker.
UniProt Q9Y6X0: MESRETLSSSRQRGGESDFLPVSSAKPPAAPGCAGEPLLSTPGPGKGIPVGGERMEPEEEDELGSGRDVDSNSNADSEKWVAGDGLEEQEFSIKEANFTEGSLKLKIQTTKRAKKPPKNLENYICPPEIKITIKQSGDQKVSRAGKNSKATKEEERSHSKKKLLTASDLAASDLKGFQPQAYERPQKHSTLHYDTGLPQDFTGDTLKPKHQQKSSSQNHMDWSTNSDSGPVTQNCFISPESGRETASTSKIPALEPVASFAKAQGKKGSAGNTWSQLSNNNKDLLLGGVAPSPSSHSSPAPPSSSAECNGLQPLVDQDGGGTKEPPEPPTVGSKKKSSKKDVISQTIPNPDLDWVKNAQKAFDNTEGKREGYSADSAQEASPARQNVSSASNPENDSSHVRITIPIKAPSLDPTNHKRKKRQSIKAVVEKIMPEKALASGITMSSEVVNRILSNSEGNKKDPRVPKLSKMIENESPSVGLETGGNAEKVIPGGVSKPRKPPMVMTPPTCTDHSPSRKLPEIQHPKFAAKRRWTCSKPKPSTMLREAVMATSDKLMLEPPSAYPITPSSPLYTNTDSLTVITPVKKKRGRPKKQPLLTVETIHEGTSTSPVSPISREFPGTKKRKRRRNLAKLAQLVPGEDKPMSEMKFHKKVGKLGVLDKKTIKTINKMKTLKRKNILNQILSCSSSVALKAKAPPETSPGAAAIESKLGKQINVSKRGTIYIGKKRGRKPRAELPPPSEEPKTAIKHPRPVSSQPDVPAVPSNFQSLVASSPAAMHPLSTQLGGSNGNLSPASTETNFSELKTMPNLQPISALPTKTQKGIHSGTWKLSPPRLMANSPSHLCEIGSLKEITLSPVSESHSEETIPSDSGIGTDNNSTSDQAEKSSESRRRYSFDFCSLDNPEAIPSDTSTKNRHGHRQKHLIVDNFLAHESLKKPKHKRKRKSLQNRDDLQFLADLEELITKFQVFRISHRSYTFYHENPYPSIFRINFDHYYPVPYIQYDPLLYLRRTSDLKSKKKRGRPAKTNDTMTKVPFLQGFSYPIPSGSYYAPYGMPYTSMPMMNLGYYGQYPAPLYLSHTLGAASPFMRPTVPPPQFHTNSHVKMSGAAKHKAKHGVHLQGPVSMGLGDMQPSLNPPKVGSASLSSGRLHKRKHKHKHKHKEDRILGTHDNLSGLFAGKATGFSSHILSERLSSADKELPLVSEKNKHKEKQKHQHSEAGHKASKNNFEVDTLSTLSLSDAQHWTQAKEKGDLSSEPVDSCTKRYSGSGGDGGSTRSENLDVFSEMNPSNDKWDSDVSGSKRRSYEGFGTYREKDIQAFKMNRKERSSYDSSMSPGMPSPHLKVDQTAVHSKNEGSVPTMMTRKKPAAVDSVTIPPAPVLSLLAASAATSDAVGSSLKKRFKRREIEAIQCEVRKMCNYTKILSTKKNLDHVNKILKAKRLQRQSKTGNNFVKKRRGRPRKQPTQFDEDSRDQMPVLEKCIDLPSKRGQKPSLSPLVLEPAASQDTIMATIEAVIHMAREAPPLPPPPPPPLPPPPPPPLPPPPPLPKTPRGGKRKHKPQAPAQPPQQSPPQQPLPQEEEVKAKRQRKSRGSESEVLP
GFP-fused SETBP1ΔHBM (Q9Y6X0, form named): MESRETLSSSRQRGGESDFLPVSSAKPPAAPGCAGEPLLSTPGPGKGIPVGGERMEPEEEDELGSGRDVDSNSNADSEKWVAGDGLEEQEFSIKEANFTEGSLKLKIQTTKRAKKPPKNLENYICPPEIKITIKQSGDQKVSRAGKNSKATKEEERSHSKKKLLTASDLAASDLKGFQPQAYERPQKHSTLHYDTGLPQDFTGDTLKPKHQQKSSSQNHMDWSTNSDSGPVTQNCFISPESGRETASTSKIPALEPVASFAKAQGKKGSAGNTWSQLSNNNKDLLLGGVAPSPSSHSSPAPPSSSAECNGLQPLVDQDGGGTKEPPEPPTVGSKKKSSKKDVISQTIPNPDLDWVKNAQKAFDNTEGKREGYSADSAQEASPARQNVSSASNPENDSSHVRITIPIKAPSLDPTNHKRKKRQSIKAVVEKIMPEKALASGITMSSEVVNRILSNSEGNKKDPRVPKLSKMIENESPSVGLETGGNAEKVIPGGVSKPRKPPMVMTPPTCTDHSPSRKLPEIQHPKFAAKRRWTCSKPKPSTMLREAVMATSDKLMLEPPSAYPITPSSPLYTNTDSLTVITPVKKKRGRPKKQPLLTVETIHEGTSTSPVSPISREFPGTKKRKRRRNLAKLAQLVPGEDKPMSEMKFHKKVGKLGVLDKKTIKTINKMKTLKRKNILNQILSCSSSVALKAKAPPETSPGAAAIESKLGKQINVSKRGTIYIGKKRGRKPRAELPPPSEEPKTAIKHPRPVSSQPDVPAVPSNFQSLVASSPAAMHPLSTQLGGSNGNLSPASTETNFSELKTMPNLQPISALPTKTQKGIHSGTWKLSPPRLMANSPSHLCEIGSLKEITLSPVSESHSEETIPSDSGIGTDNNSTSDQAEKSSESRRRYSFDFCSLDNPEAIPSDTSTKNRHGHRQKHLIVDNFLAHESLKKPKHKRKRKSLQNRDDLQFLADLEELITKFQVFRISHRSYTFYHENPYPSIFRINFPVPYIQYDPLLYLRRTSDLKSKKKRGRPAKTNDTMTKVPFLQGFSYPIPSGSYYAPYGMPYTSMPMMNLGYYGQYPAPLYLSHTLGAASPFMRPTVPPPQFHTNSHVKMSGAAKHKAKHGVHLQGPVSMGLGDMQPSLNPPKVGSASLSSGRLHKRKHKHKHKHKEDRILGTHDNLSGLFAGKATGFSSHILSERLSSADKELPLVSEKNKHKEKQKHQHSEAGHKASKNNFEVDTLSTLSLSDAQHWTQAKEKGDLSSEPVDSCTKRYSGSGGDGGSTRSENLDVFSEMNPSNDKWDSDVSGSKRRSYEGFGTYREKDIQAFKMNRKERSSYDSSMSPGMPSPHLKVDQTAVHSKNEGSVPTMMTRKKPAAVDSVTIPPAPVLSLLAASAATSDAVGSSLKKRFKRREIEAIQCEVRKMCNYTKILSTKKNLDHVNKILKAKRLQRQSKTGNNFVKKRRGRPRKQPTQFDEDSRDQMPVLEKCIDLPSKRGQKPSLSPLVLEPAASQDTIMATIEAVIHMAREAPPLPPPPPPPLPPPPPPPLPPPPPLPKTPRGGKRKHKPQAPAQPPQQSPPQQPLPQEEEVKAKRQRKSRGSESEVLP
GFP-fused SETBP1-G870S-ΔHBM (Q9Y6X0, form named): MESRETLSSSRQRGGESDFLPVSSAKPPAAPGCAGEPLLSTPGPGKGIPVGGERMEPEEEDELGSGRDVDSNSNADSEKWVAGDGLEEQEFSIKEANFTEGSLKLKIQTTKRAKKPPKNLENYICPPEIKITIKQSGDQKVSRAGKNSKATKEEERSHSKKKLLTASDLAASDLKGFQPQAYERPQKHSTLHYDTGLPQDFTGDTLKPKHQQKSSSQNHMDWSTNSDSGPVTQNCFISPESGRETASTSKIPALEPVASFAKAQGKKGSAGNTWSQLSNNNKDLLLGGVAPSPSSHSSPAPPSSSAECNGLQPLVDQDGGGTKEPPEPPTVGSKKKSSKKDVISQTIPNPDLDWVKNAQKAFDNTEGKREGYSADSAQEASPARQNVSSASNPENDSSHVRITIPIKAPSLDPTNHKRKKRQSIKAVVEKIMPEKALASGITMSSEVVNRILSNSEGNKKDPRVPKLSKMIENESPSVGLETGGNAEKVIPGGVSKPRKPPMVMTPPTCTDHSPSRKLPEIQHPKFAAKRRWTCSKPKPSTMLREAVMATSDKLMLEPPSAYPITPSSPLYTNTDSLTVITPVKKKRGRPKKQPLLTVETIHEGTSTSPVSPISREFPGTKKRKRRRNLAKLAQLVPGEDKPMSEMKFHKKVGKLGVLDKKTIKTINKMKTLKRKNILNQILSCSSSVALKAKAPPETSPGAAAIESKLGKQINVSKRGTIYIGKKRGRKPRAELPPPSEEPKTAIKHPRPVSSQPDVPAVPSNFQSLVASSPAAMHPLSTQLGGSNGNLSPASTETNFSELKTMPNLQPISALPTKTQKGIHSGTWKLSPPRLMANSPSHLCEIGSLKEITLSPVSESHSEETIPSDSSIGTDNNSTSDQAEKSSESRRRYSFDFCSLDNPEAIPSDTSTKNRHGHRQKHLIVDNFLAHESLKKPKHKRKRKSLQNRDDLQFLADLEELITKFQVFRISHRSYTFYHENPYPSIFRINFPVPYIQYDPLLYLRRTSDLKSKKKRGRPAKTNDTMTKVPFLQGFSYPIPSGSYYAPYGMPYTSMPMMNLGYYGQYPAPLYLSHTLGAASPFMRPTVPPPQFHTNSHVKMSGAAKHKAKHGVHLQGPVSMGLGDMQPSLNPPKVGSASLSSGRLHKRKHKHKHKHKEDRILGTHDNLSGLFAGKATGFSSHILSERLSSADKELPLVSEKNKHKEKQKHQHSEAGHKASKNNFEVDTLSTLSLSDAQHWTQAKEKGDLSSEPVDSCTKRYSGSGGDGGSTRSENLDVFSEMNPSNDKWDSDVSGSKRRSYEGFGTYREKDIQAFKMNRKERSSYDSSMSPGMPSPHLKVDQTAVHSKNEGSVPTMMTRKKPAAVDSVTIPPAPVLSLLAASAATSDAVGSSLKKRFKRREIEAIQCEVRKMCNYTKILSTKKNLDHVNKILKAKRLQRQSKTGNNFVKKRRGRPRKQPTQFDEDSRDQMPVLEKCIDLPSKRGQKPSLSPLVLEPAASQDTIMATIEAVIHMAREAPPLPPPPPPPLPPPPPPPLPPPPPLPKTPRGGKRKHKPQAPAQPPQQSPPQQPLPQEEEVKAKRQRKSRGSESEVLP
UniProt Q9Y297: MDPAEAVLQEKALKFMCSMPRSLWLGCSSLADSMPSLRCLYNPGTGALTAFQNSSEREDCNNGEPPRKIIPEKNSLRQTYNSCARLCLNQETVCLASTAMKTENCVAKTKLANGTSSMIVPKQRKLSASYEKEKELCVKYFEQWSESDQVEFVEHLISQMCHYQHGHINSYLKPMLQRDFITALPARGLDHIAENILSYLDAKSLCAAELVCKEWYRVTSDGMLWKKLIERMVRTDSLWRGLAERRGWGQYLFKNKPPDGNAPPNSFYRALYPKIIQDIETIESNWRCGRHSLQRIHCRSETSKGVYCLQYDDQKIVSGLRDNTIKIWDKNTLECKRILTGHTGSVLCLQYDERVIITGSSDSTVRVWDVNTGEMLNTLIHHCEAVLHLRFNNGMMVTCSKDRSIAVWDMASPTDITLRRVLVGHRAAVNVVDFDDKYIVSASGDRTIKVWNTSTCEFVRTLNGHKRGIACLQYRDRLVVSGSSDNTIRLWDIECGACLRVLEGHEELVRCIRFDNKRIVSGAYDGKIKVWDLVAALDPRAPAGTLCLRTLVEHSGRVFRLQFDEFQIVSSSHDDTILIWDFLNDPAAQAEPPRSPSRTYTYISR

Tests used:
[1] = target: V5-SETBP1 G870S (human) (UniProt Q9Y6X0); assay: co-IP; V5-agarose beads (or anti-HCF1) on the sonicated nuclear fraction of transiently transfected HEK 293T cells, overnight at 4 °C; elution with Laemmli buffer, western blot
[2] = target: V5-SETBP1-WT (human) (UniProt Q9Y6X0); assay: as above
[3] = target: GFP-fused SETBP1ΔHBM (human) (UniProt Q9Y6X0); assay: FRET or BRET; acceptor photobleaching FRET in fixed HEK 293 cells 48 h after transfection; GFP on SETBP1 as donor, Alexa Fluor 555-conjugated secondary antibodies on the partner as acceptor; nuclear regions of interest
[4] = target: GFP-fused SETBP1 G870S (human) (UniProt Q9Y6X0); assay: as above
[5] = target: GFP-fused SETBP1 WT (human) (UniProt Q9Y6X0); assay: as above
[6] = target: GFP-fused SETBP1-G870S-ΔHBM (human) (UniProt Q9Y6X0); assay: as above
[7] = target: V5-SETBP1 G870S (human) (UniProt Q9Y6X0); assay: co-IP; V5-agarose beads (or anti-HCF1) on the sonicated nuclear fraction of transiently transfected HEK 293T cells, overnight at 4 °C; elution with Laemmli buffer, western blot; remark: listed apart in the source
[8] = target: V5-SETBP1-WT (human) (UniProt Q9Y6X0); assay: as above; remark: listed apart in the source

KMT2A (from UniProt Q03164 1-3969) was tested, and the binding [1] was “binds” and the binding [2] was “binds”.

With “Flag-tagged β-TrCP (from UniProt Q9Y297 1-605)” the binding [3] was “binds”, the binding [4] was “no binding” and the binding [5] was “binds”. For the same molecule, the binding [6] was “no binding”.

B1: PHF6 (protein, UniProt Q8IWS0 1-365)
chain: MSSSVEQKKGPTRQRKCGFCKSNRDKECGQLLISENQKVAAHHKCMLFSSALVSSHSDNESLGGFSIEDVQKEIKRGTKLMCSLCHCPGATIGCDVKTCHRTYHYHCALHDKAQIREKPSQGIYMVYCRKHKKTAHNSEADLEESFNEHELEPSSPKSKKKSRKGRPRKTNFKGLSEDTRSTSSHGTDEMESSSYRDRSPHRSSPSDTRPKCGFCHVGEEENEARGKLHIFNAKKAAAHYKCMLFSSGTVQLTTTSRAEFGDFDIKTVLQEIKRGKRMKCTLCSQPGATIGCEIKACVKTYHYHCGVQDKAKYIENMSRGIYKLYCKNHSGNDERDEEDEERESKSRGKVEIDQQQLTQQQLNGN
In the case of B1, the binding [7] is reported as “binds” and the binding [8] is reported as “binds”.
